Source: US20240343761A1 (priority 2021, published 2024)
Some peptides are written in HELM: one residue between dots, names in brackets for other building blocks, links after the first $. Bridge positions count the residues as written; N and C are the ends. Square brackets hold non-standard residues; d marks the D form. Ends that are not written are not given here. Oic = O=C(O)[C@@H]1C[C@@H]2CCCC[C@@H]2N1; pGlu = O=C1CC[C@@H](C(=O)O)N1; Nle = CCCC[C@H](N)C(=O)O

Assay: general procedure: Fmoc solid-phase peptide synthesis; Wang resin (capacity 0.4-0.7 mmol/g); HATU/DIPEA; DEPBT/DIPEA for macrolactamization
Conditions: whole synthesis
[1] = UPLC/MS (Waters Acquity UPLC CSH C18), scale of the general procedure 0.1 mmol
[2] = UPLC/MS (Waters Acquity UPLC CSH C18), scale 0.1 mmol
[3] = UPLC/MS (Waters Acquity UPLC CSH C18), scale 0.2 mmol

Row | Substance | final purity (method not given) [1] | isolated mass (scale 0.1 mmol) | also measured
1 | Ac-K-F-R-R-Q-R-P-R-L-[E-H-K-K]-P-Nle-P-B1 | 100% | 3.7 mg | 
2 | Ac-K-F-R-R-Q-R-P-R-L-[E-H-K-K]-P-Nle-P-B2 | 100% | 2.8 mg | 
3 | Ac-K-F-R-R-Q-R-P-R-L-[E-H-K-K]-P-Nle-P-B3 | 100% | 6.7 mg | 
4 | Ac-K-F-R-R-Q-R-P-R-L-[E-H-K-K]-P-Nle-P-B4 | 100% | 3.9 mg | 
5 | Ac-K-F-R-R-Q-R-P-R-L-[E-H-K-K]-P-Nle-P-TyrOBn | 96% | 0.9 mg | 
6 | Ac-K-F-R-R-Q-R-P-R-L-[E-H-K-K]-P-Nle-P-cypTyrOBn | 100% | 3 mg | 
7 | Ac-K-F-R-R-Q-R-P-R-L-[E-H-K-K]-P-Nle-P-cypY | 94% | 2.4 mg | 
8 | Ac-c[E-N-T-N-(8-aminooctanoic)-R-P-R-L-K]-H-K-G-P-Nle-P-F | 100% | 1 mg | 
9 | E[Nle]PLKSRVPFP (lactam 1-5) |  | 5.6 mg | final purity (method not given) [2]: 97.0%
10 | KRRE[Nle]PLHSRVPFP (lactam 1-4) |  |  | final purity (method not given) [3]: 100%; isolated mass (scale 0.2 mmol): 8.6 mg
11 | KRRE[Nle]PLHSRV[Oic]FP (lactam 1-4) |  |  | final purity (method not given) [3]: 100%; isolated mass (scale 0.2 mmol): 5.2 mg
12 | K[Nle]PLESRVPFP (lactam 1-5) |  | 8.9 mg | final purity (method not given) [2]: 98.2%
13 | NH-c[Rx-R-L-S-AIH]-K-G-P-Nle-P-F | 98% | 0.1 mg | 
14 | PEPTIDE1{[4BrBz].R.R.S.E.P.L.H.K.R.V.P.[4BrF].P}$PEPTIDE1,PEPTIDE1,5:R3-9:R3$$$V2.0 |  | 4.1 mg | final purity (method not given) [2]: 100%
15 | PEPTIDE1{[AllylGly].R.L.S.[AllylGly].G.P.[Nle]}$PEPTIDE1,PEPTIDE1,1:R3-5:R3$$$V2.0 | 100% | 1.6 mg | 
16 | PEPTIDE1{[AllylGly].R.L.S.[AllylGly].K.G.P.A}$PEPTIDE1,PEPTIDE1,1:R3-5:R3$$$V2.0 | 100% | 0.8 mg | 
17 | PEPTIDE1{[AllylGly].R.L.S.[AllylGly].K}$PEPTIDE1,PEPTIDE1,1:R3-5:R3$$$V2.0 | 100% | 2.4 mg | 
18 | PEPTIDE1{[AllylGly].R.L.S.[AllylGly].[5Ava].P.[Nle]}$PEPTIDE1,PEPTIDE1,1:R3-5:R3$$$V2.0 | 96% | 2 mg | final LC-MS purity [1]: 93%
19 | PEPTIDE1{[Pyr].R.K.R.L.S.D.K.G.P.[Nle].P.F}$PEPTIDE1,PEPTIDE1,3:R3-7:R3$$$V2.0 | 100% | 4 mg | 

Row | Substance | final purity (method not given) [1] | isolated mass (scale 0.1 mmol) | also measured
20 | PEPTIDE1{[Pyr].R.P.R.L.S.H.K.[AllylGly].P.[Nle].P.[D-AllylGly]}$PEPTIDE1,PEPTIDE1,9:R3-13:R3$$$V2.0 | 100% | 4.7 mg | 
21 | PEPTIDE1{[Pyr].R.P.R.L.S.H.K.[D-AllylGly].P.[Nle].P.[AllylGly]}$PEPTIDE1,PEPTIDE1,9:R3-13:R3$$$V2.0 | 100% | 4.8 mg | 
22 | PEPTIDE1{[Pyr].R.R.K.[Nle].P.E.H.S.R.V.P.F.P}$PEPTIDE1,PEPTIDE1,4:R3-7:R3$$$V2.0 |  |  | final purity (method not given) [3]: 96.7%; isolated mass (scale 0.2 mmol): 9.0 mg
23 | PEPTIDE1{[Pyr].R.R.S.K.P.L.H.E.R.V.P.F.P}$PEPTIDE1,PEPTIDE1,5:R3-9:R3$$$V2.0 |  |  | final purity (method not given) [3]: 100%; isolated mass (scale 0.2 mmol): 10.7 mg
24 | PEPTIDE1{[Pyr].[AllylGly].P.R.L.S.[AllylGly].K.G.P.[Nle].P.F}$PEPTIDE1,PEPTIDE1,2:R3-7:R3$$$V2.0 | 100% | 6.1 mg | 
25 | PEPTIDE1{[Pyr].[AllylGly].P.R.[AllylGly].S.H.K.G.P.[Nle].P.F}$PEPTIDE1,PEPTIDE1,2:R3-5:R3$$$V2.0 | 100% | 18.5 mg | 
26 | PEPTIDE1{[ac].K.F.R.R.Q.R.P.R.L.E.H.K.K.P.[Nle].P.[dcypTyrOBn]}$PEPTIDE1,PEPTIDE1,11:R3-14:R3$$$V2.0 | 95% | 5.1 mg | 
27 | Pyr-R-R-S-[E-P-L-H-K]-R-V-P-4BrF-P |  |  | final purity (method not given) [3]: 100%; isolated mass (scale 0.2 mmol): 31 mg
28 | Pyr-R-R-S-[E-P-L-H-K]-R-V-P-F-Hyp(OBn) |  |  | final purity (method not given) [3]: 98%; isolated mass (scale 0.2 mmol): 3.4 mg
29 | Pyr-R-R-S-c[E-P-L-H-K]-R-V-P-F-P |  |  | final purity (method not given) [3]: 100%; isolated mass (scale 0.2 mmol): 8.9 mg
30 | Pyr-R-hR-S-[E-P-L-H-K]-R-V-P-F-P |  |  | final purity (method not given) [3]: 98%; isolated mass (scale 0.2 mmol): 20 mg
31 | [Nle]PEHSRKPFP (lactam 3-7) |  | 7.6 mg | final purity (method not given) [2]: 98.6%
32 | [Nle]PKHSREPFP (lactam 3-7) |  | 5.1 mg | final purity (method not given) [2]: 100%
33 | [Nle]PLEHRKVPFP (lactam 4-7) |  | 7.3 mg | final purity (method not given) [2]: 100%
34 | [Nle]PLEHSRKVPFP (lactam 4-8) |  | 4.1 mg | final purity (method not given) [2]: 100%
35 | [Nle]PLHERVKFP (lactam 5-8) |  | 8.9 mg | final purity (method not given) [2]: 99%
36 | [Nle]PLHKRVEFP (lactam 5-8) |  | 10.1 mg | final purity (method not given) [2]: 100%
37 | [pGlu]RRE[Nle]PKHSRVPFP (lactam 4-7) |  |  | final purity (method not given) [3]: 100%; isolated mass (scale 0.2 mmol): 7.3 mg
38 | [pGlu]RRSEPLHKRV[Oic]FP (lactam 5-9) |  |  | final purity (method not given) [3]: 100%; isolated mass (scale 0.2 mmol): 7.2 mg
